Source: publication PMC6743784
These are yes or no findings as the source states them, for the method shown. Binding seen in cells or lysates may run through a third protein. Some results given as binding are weak or reduced against the parent protein; the word gives no strength.

The chains behind the UniProt entries cited, without tags or fusion partners.
UniProt Q9QR71: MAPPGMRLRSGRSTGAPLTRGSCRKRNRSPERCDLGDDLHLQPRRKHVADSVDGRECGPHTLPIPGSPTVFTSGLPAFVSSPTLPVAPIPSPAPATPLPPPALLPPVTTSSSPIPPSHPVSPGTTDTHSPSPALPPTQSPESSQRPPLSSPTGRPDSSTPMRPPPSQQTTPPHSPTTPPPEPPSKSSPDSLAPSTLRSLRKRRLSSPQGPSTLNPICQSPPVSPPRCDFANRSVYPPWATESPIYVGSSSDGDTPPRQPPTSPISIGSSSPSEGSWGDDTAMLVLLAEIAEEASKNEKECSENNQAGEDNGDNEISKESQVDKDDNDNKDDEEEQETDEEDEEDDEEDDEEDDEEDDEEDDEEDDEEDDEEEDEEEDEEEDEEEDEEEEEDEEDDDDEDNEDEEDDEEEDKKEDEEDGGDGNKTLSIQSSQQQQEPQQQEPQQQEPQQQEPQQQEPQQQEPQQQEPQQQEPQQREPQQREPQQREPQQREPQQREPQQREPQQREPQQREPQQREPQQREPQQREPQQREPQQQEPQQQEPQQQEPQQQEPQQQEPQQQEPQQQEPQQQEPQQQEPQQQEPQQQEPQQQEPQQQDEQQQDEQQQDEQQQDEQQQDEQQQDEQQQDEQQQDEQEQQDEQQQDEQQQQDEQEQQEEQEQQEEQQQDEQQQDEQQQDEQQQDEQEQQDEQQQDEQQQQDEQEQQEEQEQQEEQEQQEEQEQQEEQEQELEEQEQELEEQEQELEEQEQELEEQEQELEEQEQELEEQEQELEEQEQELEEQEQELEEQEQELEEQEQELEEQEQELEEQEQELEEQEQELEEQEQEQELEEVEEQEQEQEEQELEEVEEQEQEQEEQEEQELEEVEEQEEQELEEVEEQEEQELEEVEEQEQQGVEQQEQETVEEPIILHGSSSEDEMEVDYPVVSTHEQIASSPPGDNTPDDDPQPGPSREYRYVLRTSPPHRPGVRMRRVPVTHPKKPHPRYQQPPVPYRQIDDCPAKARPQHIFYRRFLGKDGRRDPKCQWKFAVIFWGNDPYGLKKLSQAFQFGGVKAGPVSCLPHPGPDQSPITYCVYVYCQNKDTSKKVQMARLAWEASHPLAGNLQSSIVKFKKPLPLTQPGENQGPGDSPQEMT
UniProt P09884: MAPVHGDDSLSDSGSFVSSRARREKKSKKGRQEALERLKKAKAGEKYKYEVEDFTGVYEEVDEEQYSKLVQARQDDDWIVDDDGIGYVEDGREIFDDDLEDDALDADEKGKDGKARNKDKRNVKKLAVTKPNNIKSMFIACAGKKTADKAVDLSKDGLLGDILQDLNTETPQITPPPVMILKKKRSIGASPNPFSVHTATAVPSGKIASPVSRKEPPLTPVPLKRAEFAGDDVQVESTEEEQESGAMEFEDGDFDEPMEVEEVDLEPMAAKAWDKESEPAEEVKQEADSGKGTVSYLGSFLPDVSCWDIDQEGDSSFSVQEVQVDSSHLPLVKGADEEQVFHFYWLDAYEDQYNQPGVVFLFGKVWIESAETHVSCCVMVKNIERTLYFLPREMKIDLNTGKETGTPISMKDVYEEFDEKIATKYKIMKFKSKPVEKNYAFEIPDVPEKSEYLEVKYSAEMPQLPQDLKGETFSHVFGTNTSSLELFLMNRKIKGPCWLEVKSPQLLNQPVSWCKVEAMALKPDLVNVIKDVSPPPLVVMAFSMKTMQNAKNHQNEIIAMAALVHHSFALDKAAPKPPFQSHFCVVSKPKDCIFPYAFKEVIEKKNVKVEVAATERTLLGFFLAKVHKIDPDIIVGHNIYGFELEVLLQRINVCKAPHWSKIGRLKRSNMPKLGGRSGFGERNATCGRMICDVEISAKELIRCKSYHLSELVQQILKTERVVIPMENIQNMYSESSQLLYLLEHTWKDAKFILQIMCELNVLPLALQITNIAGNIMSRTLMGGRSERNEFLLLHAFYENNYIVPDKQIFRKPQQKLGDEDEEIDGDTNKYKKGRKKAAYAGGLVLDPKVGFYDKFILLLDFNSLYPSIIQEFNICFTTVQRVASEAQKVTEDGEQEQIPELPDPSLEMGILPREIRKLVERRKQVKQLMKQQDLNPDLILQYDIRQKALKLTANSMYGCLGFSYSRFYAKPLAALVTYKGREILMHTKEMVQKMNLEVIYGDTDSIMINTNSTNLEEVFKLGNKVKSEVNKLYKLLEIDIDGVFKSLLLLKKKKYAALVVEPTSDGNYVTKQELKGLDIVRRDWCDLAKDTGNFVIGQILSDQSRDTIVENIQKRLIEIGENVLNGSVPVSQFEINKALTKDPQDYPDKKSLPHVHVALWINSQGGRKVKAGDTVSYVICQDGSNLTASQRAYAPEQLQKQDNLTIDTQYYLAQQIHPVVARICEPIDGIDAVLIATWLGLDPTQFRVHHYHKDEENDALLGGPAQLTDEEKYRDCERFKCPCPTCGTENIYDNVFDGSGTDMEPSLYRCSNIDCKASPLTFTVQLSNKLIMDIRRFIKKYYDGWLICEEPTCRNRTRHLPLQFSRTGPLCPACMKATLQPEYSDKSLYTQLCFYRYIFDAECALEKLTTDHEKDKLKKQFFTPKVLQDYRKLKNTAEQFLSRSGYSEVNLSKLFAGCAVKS

B1: origin recognition complex protein ORC1 (protein, UniProt Q13415 1-861)
chain: MAHYPTRLKTRKTYSWVGRPLLDRKLHYQTYREMCVKTEGCSTEIHIQIGQFVLIEGDDDENPYVAKLLELFEDDSDPPPKKRARVQWFVRFCEVPACKRHLLGRKPGAQEIFWYDYPACDSNINAETIIGLVRVIPLAPKDVVPTNLKNEKTLFVKLSWNEKKFRPLSSELFAELNKPQESAAKCQKPVRAKSKSAESPSWTPAEHVAKRIESRHSASKSRQTPTHPLTPRARKRLELGNLGNPQMSQQTSCASLDSPGRIKRKVAFSEITSPSKRSQPDKLQTLSPALKAPEKTRETGLSYTEDDKKASPEHRIILRTRIAASKTIDIREERTLTPISGGQRSSVVPSVILKPENIKKRDAKEAKAQNEATSTPHRIRRKSSVLTMNRIRQQLRFLGNSKSDQEEKEILPAAEISDSSSDEEEASTPPLPRRAPRTVSRNLRSSLKSSLHTLTKVPKKSLKPRTPRCAAPQIRSRSLAAQEPASVLEEARLRLHVSAVPESLPCREQEFQDIYNFVESKLLDHTGGCMYISGVPGTGKTATVHEVIRCLQQAAQANDVPPFQYIEVNGMKLTEPHQVYVQILQKLTGQKATANHAAELLAKQFCTRGSPQETTVLLVDELDLLWTHKQDIMYNLFDWPTHKEARLVVLAIANTMDLPERIMMNRVSSRLGLTRMCFQPYTYSQLQQILRSRLKHLKAFEDDAIQLVARKVAALSGDARRCLDICRRATEICEFSQQKPDSPGLVTIAHSMEAVDEMFSSSYITAIKNSSVLEQSFLRAILAEFRRSGLEEATFQQIYSQHVALCRMEGLPYPTMSETMAVCSHLGSCRLLLVEPSRNDLLLRVRLNVSQDDVLYALKDE
B2: origin recognition complex protein ORC3 (protein, UniProt Q9UBD5 1-711)
chain: MATSSMSKGCFVFKPNSKKRKISLPIEDYFNKGKNEPEDSKLRFETYQLIWQQMKSENERLQEELNKNLFDNLIEFLQKSHSGFQKNSRDLGGQIKLREIPTAALVLGVNVTDHDLTFGSLTEALQNNVTPYVVSLQAKDCPDMKHFLQKLISQLMDCCVDIKSKEEESVHVTQRKTHYSMDSLSSWYMTVTQKTDPKMLSKKRTTSSQWQSPPVVVILKDMESFATKVLQDFIIISSQHLHEFPLILIFGIATSPIIIHRLLPHAVSSLLCIELFQSLSCKEHLTTVLDKLLLTTQFPFKINEKVLQVLTNIFLYHDFSVQNFIKGLQLSLLEHFYSQPLSVLCCNLPEAKRRINFLSNNQCENIRRLPSFRRYVEKQASEKQVALLTNERYLKEETQLLLENLHVYHMNYFLVLRCLHKFTSSLPKYPLGRQIRELYCTCLEKNIWDSEEYASVLQLLRMLAKDELMTILEKCFKVFKSYCENHLGSTAKRIEEFLAQFQSLDETKEEEDASGSQPKGLQKTDLYHLQKSLLEMKELRRSKKQTKFEVLRENVVNFIDCLVREYLLPPETQPLHEVVYFSAAHALREHLNAAPRIALHTALNNPYYYLKNEALKSEEGCIPNIAPDICIAYKLHLECSRLINLVDWSEAFATVVTAAEKMDANSATSEEMNEIIHARFIRAVSELELLGFIKPTKQKTDHVARLTWGGC
B3: minichromosomal maintenance protein MCM3 (protein, UniProt P25205 1-808)
chain: MAGTVVLDDVELREAQRDYLDFLDDEEDQGIYQSKVRELISDNQYRLIVNVNDLRRKNEKRANRLLNNAFEELVAFQRALKDFVASIDATYAKQYEEFYVGLEGSFGSKHVSPRTLTSCFLSCVVCVEGIVTKCSLVRPKVVRSVHYCPATKKTIERRYSDLTTLVAFPSSSVYPTKDEENNPLETEYGLSVYKDHQTITIQEMPEKAPAGQLPRSVDVILDDDLVDKAKPGDRVQVVGTYRCLPGKKGGYTSGTFRTVLIACNVKQMSKDAQPSFSAEDIAKIKKFSKTRSKDIFDQLAKSLAPSIHGHDYVKKAILCLLLGGVERDLENGSHIRGDINILLIGDPSVAKSQLLRYVLCTAPRAIPTTGRGSSGVGLTAAVTTDQETGERRLEAGAMVLADRGVVCIDEFDKMSDMDRTAIHEVMEQGRVTIAKAGIHARLNARCSVLAAANPVYGRYDQYKTPMENIGLQDSLLSRFDLLFIMLDQMDPEQDREISDHVLRMHRYRAPGEQDGDAMPLGSAVDILATDDPNFSQEDQQDTQIYEKHDNLLHGTKKKKEKMVSAAFMKKYIHVAKIIKPVLTQESATYIAEEYSRLRSQDSMSSDTARTSPVTARTLETLIRLATAHAKARMSKTVDLQDAEEAVELVQYAYFKKVLEKEKKRKKRSEDESETEDEEEKSQEDQEQKRKRRKTRQPDAKDGDSYDPYDFSDTEEEMPQVHTPKTADSQETKESQKVELSESRLKAFKVALLDVFREAHAQSIGMNRLTESINRDSEEPFSSVEIQAALSKMQDDNQVMVSEGIIFLI

The molecules below were run against KSHV-encoded latency associated nuclear antigen (LANA), FLAG-tagged (KSHV (human herpesvirus 8)) (UniProt Q9QR71) (assay: co-IP; anti-FLAG immuno-precipitation from whole cell lysates of HEK293T cells expressing FLAG-LANA and grown under hypoxic conditions (1% O2); lysates pre-cleared, Protein Agarose A/G beads, washed 3 times with 1X PBS; western blot for endogenous proteins).
“DNA polymerase 1 alpha (from UniProt P09884 1-1462)” was tested, and the binding was “binds”.
In the case of B1, the binding is reported as “binds”.
For B2, the binding was “binds”.
B3 was tested, and the binding was “binds”.
